For eight compounds, growth results are on record in the supplement of paper PMC8007513.

This is one part of the list. Most values come without repeats; read them as rough.

This test concerns Saccharomyces cerevisiae BY4743. In words: growth (OD600) with compound + IPBC relative to untreated control; higher = less growth inhibition. The following applies: compound concentration: 133 uM; IPBC concentration: 0.5 ug/ml; 20 h. The procedure: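 NMCCC compounds (133 uM) combined with IPBC (0.5 ug/ml) against Saccharomyces cerevisiae BY4743 in YPD, 96-well plates. Growth was read as OD600 at 20 h and expressed as % of the untreated control. Single pass.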
With `CCN1\N=C(\C(=O)OC2CCOC2=O)C3=CC=CC=C3C1=O` (stereo not drawn) + CCCCNC(=O)OCC#CI [3-iodo-2-propynyl butylcarbamate (IPBC)], the growth is 99%.
Regarding `CN1\C(=C/C(=N\[S]1(=O)=O)C2=CC=C(C)C=C2)C(=O)NC(C)(C)CO` + CCCCNC(=O)OCC#CI [3-iodo-2-propynyl butylcarbamate (IPBC)], the growth turned out to be 106%.
Then `COc1cccc(NC(=O)Cc2csc(C(C)C)n2)c1` + CCCCNC(=O)OCC#CI [3-iodo-2-propynyl butylcarbamate (IPBC)], with 92.8%; and `CCCc1cc(NCCN(C)C)n2nc3nc(C)cc(C)c3c2n1` + CCCCNC(=O)OCC#CI [3-iodo-2-propynyl butylcarbamate (IPBC)], with 98.3%.
For `Nc1nc(SCc2c(Cl)cccc2Cl)c2[nH]cnc2n1` + CCCCNC(=O)OCC#CI [3-iodo-2-propynyl butylcarbamate (IPBC)], the growth was 102%.
Under `COc1cc(OC)c(NC(=O)CCS(=O)(=O)c2ccc3c(c2)NC(=O)C(C)S3)cc1Cl` (stereo not drawn) + CCCCNC(=O)OCC#CI [3-iodo-2-propynyl butylcarbamate (IPBC)] stands 104%; under `Cc1cccc(-n2ccnc2SCC(=O)Nc2ccccc2S(=O)(=O)C(F)F)c1` + CCCCNC(=O)OCC#CI [3-iodo-2-propynyl butylcarbamate (IPBC)], 79.5%; under `CCSc1ccccc1C(=O)Nc1ccc(S(=O)(=O)NCC(F)(F)F)cc1` + CCCCNC(=O)OCC#CI [3-iodo-2-propynyl butylcarbamate (IPBC)], 93.5%.
